Results are given in words; binding and its absence hold for the method and conditions named. Binding seen in cells or lysates may run through a third protein. Some entries that bind do so weakly or less than the wild type.

Protein sequences, listed by entry. Tags and fused reporters are not part of them. Lines headed by an entry give the natural chain unless they say otherwise; changes in a name come on top.
UniProt P16520: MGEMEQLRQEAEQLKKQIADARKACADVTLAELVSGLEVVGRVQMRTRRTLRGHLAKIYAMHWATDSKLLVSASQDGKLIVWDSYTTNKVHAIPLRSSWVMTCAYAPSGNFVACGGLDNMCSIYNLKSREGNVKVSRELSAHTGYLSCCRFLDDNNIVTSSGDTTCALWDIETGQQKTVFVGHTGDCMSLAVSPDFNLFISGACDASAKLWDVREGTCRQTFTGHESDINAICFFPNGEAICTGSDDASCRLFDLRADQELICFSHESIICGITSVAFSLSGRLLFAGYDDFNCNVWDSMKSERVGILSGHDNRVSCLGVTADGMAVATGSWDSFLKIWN
UniProt O14610: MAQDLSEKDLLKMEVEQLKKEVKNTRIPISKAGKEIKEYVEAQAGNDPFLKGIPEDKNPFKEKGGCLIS
UniProt P63096: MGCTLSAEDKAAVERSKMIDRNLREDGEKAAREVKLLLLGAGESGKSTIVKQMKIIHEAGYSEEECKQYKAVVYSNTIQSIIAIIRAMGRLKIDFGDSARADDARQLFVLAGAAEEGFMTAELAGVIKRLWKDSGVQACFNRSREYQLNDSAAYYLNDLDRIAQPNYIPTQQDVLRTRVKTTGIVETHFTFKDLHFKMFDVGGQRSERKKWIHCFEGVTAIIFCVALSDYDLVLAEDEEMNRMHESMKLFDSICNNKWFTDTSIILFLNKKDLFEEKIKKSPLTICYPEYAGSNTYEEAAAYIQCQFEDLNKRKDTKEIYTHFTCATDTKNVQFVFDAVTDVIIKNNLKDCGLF

The target of the assay is Gβγ (Gβ3 and γ9-GFP fusion) (human) (UniProt P16520+O14610). As to the kind of experiment: FRET or BRET; HEK293T cells co-transfected 1:1:1:1 with neurotensin receptor, Gα-RLuc8, Gβ and Gγ-GFP2; coelenterazine 400a; neurotensin dose series for 5 min; BRET ratio GFP2 (510 nm) over RLuc8 (395 nm); net BRET read as receptor-mediated dissociation of Gαi from Gβγ; intracellular pH lowered (7.2 to 6.7-6.85) by extracellular pH or FCCP.

With “Full-length human Gαi containing Renilla luciferase (Gα-RLuc8), wild type (from UniProt P63096 1-354)”, the binding entry is listed as “binds”.

In the case of “Gαi double variant (E236L/D237G) containing Renilla luciferase (from UniProt P63096 1-354)”, the binding result was “binds”.
